# These are yes or no findings as the source states them, for the method shown.
# T1: RapF^E303A (B. subtilis) (UniProt P71002)
# T1 sequence: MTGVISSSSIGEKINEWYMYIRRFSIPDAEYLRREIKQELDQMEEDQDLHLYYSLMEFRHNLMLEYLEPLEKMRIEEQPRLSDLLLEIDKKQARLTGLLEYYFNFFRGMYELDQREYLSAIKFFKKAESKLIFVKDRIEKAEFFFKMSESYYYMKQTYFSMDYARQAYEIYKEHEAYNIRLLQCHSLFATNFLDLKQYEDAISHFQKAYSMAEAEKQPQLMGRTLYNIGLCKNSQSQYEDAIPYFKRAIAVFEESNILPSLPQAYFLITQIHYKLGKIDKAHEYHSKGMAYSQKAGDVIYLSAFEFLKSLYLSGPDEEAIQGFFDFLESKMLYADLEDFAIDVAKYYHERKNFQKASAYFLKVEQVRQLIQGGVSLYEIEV
# T2: RapF^N227A (B. subtilis) (UniProt P71002)
# T2 sequence: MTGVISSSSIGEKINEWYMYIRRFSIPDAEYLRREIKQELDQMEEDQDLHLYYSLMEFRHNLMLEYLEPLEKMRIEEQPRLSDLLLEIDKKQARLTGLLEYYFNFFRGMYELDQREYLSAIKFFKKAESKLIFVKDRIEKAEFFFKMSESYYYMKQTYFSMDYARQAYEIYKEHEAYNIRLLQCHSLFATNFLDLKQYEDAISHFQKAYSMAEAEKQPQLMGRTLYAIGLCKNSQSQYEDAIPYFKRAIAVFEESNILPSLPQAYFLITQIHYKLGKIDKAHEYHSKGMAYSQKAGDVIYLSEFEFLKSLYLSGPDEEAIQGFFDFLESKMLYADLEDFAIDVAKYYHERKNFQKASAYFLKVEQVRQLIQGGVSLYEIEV
# T3: RapF^D194A (B. subtilis) (UniProt P71002)
# T3 sequence: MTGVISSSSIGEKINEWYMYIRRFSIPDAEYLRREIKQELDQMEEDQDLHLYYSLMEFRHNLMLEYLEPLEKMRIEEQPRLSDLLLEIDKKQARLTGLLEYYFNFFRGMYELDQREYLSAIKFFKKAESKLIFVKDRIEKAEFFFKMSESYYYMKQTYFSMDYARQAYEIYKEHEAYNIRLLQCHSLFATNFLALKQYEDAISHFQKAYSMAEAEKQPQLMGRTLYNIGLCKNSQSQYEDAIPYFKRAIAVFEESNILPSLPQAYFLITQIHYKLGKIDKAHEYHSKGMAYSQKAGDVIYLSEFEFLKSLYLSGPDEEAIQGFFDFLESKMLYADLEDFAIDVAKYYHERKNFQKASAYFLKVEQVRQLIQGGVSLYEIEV
# Experiments:
# [1] = target: T1, RapF^E303A (B. subtilis); test: native gel or EMSA; titration on 8% native gel; 20 µg protein, peptide 50 nM to 1.2 mM in 20 µl buffer A, 15 min at room temperature; midpoint of the transition taken as the apparent Kd; both purified
# [2] = target: T1, RapF^E303A (B. subtilis); test: native gel or EMSA; Native-PAGE, Coomassie stained; RapF (WT or mutant) and ComA 10 µM each, Phr peptides 0.5 mM; buffer A (200 mM NaCl, 50 mM Tris-HCl pH 8.0), room temperature, 30 min; both purified
# [3] = target: T2, RapF^N227A (B. subtilis); test: thermal-shift assay (SYPRO Orange); 20 µM RapF, peptides 1 mM; 20 mM Tris-HCl pH 8, 100 mM NaCl; heated at 1°C/min; both purified
# [4] = target: T1, RapF^E303A (B. subtilis); test: as above
# [5] = target: T3, RapF^D194A (B. subtilis); test: as above
# [6] = target: T2, RapF^N227A (B. subtilis); test: native gel or EMSA; titration on 8% native gel; 20 µg protein, peptide 50 nM to 1.2 mM in 20 µl buffer A, 15 min at room temperature; midpoint of the transition taken as the apparent Kd; both purified
# [7] = target: T3, RapF^D194A (B. subtilis); test: as above
# [8] = target: T2, RapF^N227A (B. subtilis); test: native gel or EMSA; Native-PAGE, Coomassie stained; RapF (WT or mutant) and ComA 10 µM each, Phr peptides 0.5 mM; buffer A (200 mM NaCl, 50 mM Tris-HCl pH 8.0), room temperature, 30 min; both purified
# [9] = target: T3, RapF^D194A (B. subtilis); test: as above
Binder,binding [1],binding [2],binding [3],binding [4],binding [5],binding [6],binding [7],binding [8],binding [9]
ERGMT (mature active form of the PhrC precursor; also called PhrC peptide; RapC (PhrC) peptide) [PhrC],no binding (tested: 0–1.2 mM),no binding (tested: 0.5 mM),no binding (tested: 1 mM),no binding (tested: 1 mM),no binding (tested: 1 mM),–,–,–,–
QRGMI (mature active form of the PhrF precursor; The purchase from Genescript is stated for the crystallisation; no other source is named; also called PhrF peptide; source: bought: Genescript) [PhrF],–,–,no binding (tested: 1 mM),–,no binding (tested: 1 mM),no binding (tested: 1.2 mM),no binding (tested: 1.2 mM),no binding (tested: 0.5 mM),no binding (tested: 0.5 mM)

# Reference: PMC3601957, “Structural Basis of Rap Phosphatase Inhibition by Phr Peptides” (PLoS Biology, 2013)
